Results are given in words; binding and its absence hold for the method and conditions named. In cells and extracts the contact can be indirect. Binding calls can cover weak binding; strength is not graded here.

Chains of the proteins cited; added tags and fusions are not shown. Lines headed by an entry give the natural chain unless they say otherwise; changes in a name come on top.
UniProt Q9W596: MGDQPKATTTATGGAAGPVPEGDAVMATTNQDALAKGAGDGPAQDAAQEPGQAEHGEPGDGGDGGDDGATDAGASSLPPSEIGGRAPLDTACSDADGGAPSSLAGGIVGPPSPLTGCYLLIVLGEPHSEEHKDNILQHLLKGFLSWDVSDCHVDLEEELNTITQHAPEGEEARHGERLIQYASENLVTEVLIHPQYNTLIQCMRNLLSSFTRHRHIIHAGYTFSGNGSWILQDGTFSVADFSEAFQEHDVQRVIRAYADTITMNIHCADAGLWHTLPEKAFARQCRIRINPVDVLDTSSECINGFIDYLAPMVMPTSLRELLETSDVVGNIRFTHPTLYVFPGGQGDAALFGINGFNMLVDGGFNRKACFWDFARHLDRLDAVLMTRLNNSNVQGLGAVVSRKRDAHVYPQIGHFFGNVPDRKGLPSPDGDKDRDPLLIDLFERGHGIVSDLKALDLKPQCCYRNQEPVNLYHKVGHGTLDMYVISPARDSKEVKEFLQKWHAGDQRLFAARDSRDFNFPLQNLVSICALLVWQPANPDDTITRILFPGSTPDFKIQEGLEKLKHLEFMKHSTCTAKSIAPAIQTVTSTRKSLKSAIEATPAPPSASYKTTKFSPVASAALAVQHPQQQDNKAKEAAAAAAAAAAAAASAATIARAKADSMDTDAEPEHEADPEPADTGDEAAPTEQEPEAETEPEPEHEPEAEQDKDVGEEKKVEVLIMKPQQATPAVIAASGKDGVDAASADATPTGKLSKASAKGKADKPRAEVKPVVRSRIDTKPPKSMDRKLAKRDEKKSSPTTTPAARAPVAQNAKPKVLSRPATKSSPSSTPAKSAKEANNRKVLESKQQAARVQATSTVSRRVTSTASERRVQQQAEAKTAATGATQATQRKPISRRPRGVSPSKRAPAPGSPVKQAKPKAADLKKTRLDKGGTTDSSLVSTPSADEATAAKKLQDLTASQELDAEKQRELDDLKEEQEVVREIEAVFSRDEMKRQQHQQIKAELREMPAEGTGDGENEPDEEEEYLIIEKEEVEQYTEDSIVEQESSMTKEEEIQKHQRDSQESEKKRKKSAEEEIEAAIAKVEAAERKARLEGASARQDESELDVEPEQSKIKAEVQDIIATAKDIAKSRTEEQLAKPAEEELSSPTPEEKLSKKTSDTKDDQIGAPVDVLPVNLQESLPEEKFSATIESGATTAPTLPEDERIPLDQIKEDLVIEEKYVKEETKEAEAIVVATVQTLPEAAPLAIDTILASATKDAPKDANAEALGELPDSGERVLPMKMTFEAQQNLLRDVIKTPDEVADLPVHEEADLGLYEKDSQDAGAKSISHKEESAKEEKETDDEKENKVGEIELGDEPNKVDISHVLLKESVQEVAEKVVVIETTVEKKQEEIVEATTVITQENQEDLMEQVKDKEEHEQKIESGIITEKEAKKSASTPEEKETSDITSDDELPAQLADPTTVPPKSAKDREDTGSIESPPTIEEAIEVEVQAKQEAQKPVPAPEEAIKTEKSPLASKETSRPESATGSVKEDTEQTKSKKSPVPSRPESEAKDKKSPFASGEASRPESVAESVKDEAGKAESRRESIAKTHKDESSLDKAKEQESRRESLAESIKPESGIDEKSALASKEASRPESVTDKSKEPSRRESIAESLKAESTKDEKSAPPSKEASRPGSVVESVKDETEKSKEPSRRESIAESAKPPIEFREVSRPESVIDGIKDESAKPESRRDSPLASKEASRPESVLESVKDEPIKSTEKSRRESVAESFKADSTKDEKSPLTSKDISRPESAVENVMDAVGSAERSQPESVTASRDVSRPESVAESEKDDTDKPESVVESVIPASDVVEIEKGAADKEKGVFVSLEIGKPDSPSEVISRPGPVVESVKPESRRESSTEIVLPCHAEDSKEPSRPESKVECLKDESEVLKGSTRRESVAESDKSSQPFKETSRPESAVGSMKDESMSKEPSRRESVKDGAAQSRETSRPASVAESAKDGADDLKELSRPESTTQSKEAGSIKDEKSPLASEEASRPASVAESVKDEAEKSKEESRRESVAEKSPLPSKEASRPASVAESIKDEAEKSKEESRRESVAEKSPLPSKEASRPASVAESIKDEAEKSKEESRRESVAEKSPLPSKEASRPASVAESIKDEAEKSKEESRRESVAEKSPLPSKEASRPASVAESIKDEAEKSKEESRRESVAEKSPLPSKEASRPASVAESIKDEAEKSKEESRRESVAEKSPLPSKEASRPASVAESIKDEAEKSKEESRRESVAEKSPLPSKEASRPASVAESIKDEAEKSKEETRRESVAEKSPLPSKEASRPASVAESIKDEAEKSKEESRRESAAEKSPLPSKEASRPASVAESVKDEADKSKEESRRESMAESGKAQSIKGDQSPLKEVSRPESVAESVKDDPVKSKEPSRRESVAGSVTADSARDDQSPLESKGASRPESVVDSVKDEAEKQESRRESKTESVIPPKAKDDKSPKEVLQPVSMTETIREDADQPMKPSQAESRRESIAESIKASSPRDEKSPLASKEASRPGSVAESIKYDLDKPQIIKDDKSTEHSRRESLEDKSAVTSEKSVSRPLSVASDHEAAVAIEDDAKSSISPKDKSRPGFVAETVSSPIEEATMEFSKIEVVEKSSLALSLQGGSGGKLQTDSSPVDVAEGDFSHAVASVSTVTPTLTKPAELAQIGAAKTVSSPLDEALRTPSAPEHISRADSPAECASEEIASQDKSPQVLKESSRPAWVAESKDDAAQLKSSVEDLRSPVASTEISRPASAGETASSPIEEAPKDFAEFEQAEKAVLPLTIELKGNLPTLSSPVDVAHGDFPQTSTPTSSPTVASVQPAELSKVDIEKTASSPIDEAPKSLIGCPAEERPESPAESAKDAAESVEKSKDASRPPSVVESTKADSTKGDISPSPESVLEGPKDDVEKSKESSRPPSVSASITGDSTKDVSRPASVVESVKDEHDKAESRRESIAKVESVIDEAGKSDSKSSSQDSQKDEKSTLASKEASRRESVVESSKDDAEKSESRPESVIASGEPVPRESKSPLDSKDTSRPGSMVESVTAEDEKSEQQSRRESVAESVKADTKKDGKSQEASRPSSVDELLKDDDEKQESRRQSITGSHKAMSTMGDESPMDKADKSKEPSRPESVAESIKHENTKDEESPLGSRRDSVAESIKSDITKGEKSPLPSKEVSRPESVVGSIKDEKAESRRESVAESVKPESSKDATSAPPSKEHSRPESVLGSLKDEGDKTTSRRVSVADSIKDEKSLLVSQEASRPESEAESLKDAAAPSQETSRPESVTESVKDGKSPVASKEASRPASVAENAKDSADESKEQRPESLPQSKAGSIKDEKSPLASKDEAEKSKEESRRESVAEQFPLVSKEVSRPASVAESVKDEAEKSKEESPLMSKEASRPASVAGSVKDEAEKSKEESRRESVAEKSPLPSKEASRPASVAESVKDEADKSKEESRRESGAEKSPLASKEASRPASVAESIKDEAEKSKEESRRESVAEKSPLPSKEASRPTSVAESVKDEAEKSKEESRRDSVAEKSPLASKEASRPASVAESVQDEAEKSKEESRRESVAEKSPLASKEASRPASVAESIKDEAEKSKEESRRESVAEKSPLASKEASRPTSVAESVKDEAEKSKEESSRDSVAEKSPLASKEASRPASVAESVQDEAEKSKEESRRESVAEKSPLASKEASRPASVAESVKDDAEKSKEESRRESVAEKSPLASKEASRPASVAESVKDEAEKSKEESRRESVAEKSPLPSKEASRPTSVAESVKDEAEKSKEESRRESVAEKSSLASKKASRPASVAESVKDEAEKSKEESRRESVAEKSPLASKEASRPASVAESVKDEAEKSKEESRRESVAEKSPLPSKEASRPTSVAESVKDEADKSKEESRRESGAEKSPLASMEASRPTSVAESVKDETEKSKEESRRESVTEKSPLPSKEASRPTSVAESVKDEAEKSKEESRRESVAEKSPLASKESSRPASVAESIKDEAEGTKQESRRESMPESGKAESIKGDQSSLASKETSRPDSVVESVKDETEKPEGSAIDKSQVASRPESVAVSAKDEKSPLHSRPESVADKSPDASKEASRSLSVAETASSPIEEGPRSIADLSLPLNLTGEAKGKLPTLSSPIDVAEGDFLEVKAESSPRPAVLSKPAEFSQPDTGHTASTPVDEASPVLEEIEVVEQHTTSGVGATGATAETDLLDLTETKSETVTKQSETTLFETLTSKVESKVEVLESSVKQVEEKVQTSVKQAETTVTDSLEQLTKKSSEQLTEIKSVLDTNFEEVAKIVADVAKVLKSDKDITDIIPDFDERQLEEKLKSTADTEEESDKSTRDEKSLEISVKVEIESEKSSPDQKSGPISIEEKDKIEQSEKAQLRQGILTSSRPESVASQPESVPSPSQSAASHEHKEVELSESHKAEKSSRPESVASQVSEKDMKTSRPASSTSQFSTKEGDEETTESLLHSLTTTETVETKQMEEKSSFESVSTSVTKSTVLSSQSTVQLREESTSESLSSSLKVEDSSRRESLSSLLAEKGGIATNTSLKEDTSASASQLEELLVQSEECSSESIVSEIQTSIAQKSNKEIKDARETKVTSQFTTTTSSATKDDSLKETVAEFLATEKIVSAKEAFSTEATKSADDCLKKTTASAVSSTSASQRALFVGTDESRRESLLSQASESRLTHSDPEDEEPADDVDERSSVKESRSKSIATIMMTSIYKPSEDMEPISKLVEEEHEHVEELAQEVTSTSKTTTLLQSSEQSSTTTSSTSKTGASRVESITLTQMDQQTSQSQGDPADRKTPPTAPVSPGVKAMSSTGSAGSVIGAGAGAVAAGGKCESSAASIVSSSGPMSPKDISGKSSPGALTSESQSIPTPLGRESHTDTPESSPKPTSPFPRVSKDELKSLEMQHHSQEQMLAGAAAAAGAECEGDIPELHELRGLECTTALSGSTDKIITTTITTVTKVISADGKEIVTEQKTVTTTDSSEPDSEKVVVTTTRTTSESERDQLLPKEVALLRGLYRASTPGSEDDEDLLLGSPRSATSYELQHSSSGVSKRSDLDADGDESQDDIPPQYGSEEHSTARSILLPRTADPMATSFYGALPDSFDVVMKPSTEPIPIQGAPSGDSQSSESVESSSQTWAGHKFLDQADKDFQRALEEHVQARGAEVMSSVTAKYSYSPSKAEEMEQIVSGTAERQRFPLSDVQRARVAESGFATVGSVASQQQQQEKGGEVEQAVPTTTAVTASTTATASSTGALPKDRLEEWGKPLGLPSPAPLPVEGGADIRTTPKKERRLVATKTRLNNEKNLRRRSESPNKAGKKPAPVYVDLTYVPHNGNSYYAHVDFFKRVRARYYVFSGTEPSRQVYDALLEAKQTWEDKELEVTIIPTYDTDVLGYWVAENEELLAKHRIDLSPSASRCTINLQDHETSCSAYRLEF
UniProt Q9VTG0: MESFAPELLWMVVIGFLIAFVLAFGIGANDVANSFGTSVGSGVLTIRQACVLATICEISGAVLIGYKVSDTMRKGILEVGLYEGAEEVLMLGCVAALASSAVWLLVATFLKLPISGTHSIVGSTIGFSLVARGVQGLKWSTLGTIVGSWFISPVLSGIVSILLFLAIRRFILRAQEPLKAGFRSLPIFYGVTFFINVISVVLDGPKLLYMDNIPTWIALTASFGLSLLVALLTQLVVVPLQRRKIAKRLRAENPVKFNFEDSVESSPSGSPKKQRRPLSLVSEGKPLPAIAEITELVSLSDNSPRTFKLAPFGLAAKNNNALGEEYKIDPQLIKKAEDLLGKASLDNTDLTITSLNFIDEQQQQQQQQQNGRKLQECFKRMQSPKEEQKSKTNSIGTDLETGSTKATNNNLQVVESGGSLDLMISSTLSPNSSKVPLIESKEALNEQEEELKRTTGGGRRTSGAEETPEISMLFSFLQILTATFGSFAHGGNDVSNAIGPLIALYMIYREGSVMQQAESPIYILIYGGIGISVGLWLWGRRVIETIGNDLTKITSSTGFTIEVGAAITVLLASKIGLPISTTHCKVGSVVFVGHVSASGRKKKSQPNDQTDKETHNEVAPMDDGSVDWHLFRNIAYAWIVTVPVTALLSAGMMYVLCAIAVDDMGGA

The record followed here is article PMC5736545.

This assay has as its target Futsch, endogenous (Drosophila) (Drosophila (endogenous in brain)) (UniProt Q9W596). Briefly: co-IP; endogenous proteins, wild type Drosophila head/brain lysate, immunoprecipitated with anti-Futsch or anti-dPiT antibody, Dynabeads Protein G.

For the substance “dPiT, endogenous (Drosophila) (from UniProt Q9VTG0)”, the binding result was “binds”.
